Reference: paper PMC8410936
Results are given in words; binding and its absence hold for the method and conditions named. Binding can be weak; no strength is given. For some of these results: Where a sequence is shown, tags or fusion partners need not be part of it.

Assays:
[1] = target: T1, PapD chaperone with His-tag (uropathogenic Escherichia coli) (UniProt P15319); assay: isolation of assembly intermediates from bacteria; complexes formed in bacteria and isolated; no data shown, details not told
T1 sequence: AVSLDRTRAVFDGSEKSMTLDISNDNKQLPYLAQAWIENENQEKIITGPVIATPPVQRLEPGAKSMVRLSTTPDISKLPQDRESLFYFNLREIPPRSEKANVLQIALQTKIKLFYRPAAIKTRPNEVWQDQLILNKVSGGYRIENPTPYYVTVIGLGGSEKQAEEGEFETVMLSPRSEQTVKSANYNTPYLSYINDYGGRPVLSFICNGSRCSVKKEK

[2] = target: T2, PapC usher (uropathogenic Escherichia coli) (UniProt P07110); assay: cryo-EM structure; ∆E complex PapCDHisK_(E-NTE)FG made in vivo, purified from the outer membrane by the His-tag on PapD, 25 mM Tris-HCl pH 8.0, 120 mM NaCl, 0.1% DDM; Conformer I, 7.6 Å
T2 sequence: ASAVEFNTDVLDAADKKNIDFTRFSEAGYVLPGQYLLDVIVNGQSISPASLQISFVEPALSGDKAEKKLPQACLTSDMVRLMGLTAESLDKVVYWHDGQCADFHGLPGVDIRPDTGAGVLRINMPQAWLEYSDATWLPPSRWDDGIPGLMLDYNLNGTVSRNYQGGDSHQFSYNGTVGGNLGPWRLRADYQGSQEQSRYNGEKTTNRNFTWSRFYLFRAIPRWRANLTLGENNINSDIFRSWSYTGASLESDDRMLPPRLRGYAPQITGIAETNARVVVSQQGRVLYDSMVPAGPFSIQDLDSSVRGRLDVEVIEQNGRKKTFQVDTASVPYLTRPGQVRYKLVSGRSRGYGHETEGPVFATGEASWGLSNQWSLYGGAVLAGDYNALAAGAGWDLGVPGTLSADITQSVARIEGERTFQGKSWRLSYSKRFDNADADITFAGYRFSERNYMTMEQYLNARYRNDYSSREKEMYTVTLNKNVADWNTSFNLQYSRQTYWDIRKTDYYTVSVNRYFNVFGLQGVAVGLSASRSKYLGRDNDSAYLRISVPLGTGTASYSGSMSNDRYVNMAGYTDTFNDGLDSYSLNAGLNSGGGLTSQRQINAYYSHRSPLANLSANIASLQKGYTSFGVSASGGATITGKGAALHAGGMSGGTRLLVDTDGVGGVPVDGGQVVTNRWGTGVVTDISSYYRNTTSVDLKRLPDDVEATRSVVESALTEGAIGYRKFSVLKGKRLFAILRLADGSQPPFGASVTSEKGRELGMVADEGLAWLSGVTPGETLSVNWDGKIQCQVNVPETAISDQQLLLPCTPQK

[3] = target: T2, PapC usher (uropathogenic Escherichia coli); assay: cryo-EM structure; ∆EF complex PapCDHisK_(F-NTE)G made in vivo, purified from the outer membrane by the His-tag on PapD, 25 mM Tris-HCl pH 8.0, 120 mM NaCl, 0.1% DDM; Conformer II at 3.8 Å and Conformer III at 7.2 Å from one dataset
[4] = target: PapG adhesin (uropathogenic Escherichia coli); assay: cryo-EM structure; ∆E complex PapCDHisK_(E-NTE)FG made in vivo, purified from the outer membrane by the His-tag on PapD, 25 mM Tris-HCl pH 8.0, 120 mM NaCl, 0.1% DDM; Conformer I, 7.6 Å

PapG adhesin (uropathogenic Escherichia coli)
binding [1]: binds
binding [2]: binds
binding [3]: binds

B1: PapF (protein, UniProt P08408 19-167)
chain: ADVQINIRGNVYIPPCTINNGQNIVVDFGNINPEHVDNSRGEVTKTISISCPYKSGSLWIKVTGNTMGGGQNNVLATNITHFGIALYQGKGMSTPLILGNGSGNGYGVTAGLDTARSTFTFTSVPFRNGSGILNGGDFQTTASMSMIYN
binding [4]: binds
